For 17 targets, log2 fold change results are on record in the supplement of paper PMC10849652.

Chains of the proteins cited; added tags and fusions are not shown. Lines headed by an entry give the natural chain unless they say otherwise; changes in a name come on top.
UniProt Q9Y3E0: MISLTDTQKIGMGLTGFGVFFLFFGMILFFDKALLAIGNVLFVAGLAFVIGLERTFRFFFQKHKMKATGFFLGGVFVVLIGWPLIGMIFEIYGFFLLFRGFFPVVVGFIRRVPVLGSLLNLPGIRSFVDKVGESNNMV
UniProt Q9BQ67, whole entry, looked up: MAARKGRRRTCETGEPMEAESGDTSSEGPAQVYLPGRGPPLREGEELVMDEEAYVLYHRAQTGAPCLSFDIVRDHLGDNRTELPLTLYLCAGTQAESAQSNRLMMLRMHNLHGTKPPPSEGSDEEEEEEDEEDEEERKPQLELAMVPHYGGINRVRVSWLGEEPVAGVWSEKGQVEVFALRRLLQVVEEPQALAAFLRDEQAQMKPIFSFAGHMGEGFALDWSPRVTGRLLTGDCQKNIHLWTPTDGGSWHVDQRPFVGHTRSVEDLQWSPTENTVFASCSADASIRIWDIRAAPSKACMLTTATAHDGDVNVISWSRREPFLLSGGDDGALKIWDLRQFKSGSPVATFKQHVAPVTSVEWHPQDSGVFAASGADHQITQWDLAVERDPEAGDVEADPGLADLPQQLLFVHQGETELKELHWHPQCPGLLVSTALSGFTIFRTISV
UniProt Q9UBQ7: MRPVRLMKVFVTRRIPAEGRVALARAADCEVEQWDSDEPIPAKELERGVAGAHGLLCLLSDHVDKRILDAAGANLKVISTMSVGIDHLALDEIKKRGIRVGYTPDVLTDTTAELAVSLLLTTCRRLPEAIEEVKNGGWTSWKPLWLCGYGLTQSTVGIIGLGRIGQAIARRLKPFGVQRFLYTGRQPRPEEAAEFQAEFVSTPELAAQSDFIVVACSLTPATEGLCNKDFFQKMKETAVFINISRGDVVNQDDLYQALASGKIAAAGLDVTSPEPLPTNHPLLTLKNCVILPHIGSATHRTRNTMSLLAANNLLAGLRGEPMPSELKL
UniProt Q92896: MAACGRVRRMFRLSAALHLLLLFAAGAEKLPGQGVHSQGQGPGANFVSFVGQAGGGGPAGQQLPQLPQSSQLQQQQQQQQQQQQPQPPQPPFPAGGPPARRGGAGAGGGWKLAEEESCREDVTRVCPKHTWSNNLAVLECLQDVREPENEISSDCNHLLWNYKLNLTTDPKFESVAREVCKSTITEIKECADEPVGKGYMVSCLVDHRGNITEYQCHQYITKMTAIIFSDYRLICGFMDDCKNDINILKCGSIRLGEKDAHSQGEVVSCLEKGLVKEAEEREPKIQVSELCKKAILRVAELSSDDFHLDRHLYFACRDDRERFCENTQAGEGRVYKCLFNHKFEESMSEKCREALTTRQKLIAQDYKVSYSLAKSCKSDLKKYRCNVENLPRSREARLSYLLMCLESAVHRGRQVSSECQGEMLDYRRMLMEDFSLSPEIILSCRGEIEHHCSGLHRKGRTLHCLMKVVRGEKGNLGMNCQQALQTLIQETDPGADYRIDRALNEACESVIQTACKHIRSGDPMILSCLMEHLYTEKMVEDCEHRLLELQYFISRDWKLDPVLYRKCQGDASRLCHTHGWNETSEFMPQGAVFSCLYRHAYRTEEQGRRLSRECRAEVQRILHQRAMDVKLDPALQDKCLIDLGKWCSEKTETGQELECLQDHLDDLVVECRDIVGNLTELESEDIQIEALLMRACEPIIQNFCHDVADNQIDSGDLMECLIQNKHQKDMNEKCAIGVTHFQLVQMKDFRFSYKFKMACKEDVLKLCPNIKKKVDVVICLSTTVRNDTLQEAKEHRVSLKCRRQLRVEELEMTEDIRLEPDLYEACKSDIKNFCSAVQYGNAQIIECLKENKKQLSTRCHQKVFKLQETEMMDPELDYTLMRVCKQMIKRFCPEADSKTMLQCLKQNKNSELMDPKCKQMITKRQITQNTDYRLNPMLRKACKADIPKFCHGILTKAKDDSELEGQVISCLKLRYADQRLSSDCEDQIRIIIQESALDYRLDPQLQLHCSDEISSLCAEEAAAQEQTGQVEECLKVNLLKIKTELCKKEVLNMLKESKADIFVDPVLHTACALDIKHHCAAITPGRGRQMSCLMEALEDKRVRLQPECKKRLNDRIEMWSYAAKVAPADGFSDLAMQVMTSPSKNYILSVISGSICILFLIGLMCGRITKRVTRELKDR
UniProt Q12849: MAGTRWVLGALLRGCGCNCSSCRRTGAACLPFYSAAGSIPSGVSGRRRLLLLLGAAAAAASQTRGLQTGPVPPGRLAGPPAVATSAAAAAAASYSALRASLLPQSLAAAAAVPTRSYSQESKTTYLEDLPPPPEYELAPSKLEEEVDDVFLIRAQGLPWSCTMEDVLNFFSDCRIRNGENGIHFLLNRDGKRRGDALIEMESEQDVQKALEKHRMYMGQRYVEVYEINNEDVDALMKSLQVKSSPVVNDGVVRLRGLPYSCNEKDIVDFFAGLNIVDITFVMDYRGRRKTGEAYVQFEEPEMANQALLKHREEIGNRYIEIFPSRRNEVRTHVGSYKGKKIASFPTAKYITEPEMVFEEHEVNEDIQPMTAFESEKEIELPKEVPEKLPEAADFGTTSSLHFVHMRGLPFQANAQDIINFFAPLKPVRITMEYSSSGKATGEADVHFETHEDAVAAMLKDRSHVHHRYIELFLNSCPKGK
UniProt Q8IW92: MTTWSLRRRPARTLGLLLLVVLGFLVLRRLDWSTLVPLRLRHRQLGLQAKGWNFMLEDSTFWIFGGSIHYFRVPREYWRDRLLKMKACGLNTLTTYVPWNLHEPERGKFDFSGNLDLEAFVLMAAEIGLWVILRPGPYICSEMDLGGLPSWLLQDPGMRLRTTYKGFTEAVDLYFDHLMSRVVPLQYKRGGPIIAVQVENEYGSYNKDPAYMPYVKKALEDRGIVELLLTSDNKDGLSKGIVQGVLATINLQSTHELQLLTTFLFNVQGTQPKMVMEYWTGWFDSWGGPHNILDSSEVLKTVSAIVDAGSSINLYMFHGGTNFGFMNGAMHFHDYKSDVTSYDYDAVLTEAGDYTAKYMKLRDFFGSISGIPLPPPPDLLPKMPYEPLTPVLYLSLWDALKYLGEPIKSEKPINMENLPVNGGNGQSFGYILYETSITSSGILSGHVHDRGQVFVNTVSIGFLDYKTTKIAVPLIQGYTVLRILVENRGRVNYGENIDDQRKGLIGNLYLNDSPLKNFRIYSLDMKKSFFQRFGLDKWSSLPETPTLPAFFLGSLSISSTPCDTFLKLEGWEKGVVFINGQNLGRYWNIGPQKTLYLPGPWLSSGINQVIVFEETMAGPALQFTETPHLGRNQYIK
UniProt O14908: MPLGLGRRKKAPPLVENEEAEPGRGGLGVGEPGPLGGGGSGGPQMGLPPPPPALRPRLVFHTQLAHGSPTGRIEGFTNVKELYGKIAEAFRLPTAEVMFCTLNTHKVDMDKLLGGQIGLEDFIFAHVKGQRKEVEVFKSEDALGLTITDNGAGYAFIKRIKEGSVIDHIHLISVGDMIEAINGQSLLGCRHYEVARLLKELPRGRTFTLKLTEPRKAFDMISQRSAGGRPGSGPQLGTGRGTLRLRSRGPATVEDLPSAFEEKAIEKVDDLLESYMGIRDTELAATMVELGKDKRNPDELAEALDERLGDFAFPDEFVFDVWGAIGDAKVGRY
UniProt Q08379: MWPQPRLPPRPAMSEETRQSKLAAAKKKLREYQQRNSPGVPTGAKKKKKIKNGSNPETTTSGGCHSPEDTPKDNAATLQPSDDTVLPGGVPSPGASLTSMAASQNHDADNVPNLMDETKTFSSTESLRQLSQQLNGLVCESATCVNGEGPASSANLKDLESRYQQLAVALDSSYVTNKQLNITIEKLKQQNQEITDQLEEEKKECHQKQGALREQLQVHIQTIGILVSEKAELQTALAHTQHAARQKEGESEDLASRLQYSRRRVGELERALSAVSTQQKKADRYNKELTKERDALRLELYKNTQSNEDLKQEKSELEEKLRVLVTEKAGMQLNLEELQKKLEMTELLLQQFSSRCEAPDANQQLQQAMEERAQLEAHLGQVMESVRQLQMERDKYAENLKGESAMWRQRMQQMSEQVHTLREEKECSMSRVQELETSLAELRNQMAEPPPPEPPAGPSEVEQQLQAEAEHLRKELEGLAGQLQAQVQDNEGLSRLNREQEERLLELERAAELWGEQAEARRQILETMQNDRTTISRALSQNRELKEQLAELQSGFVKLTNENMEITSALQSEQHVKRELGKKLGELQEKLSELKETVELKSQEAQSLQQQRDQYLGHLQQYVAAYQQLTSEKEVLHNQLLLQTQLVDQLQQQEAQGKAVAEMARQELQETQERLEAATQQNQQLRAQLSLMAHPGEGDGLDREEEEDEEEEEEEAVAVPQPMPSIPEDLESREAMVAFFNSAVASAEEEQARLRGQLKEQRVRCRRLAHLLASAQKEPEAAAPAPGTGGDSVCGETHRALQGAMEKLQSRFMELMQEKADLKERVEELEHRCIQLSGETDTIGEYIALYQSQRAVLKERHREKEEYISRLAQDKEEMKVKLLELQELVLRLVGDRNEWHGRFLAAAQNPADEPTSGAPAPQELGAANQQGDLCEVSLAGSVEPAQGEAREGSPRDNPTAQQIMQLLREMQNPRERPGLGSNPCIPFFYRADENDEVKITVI
UniProt Q9BRX5: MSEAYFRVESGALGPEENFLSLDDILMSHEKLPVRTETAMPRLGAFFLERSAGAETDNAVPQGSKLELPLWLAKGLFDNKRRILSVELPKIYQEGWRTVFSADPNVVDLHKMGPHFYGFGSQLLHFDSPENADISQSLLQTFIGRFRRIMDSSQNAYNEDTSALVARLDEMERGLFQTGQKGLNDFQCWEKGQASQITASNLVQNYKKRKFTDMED
UniProt Q8TBA6: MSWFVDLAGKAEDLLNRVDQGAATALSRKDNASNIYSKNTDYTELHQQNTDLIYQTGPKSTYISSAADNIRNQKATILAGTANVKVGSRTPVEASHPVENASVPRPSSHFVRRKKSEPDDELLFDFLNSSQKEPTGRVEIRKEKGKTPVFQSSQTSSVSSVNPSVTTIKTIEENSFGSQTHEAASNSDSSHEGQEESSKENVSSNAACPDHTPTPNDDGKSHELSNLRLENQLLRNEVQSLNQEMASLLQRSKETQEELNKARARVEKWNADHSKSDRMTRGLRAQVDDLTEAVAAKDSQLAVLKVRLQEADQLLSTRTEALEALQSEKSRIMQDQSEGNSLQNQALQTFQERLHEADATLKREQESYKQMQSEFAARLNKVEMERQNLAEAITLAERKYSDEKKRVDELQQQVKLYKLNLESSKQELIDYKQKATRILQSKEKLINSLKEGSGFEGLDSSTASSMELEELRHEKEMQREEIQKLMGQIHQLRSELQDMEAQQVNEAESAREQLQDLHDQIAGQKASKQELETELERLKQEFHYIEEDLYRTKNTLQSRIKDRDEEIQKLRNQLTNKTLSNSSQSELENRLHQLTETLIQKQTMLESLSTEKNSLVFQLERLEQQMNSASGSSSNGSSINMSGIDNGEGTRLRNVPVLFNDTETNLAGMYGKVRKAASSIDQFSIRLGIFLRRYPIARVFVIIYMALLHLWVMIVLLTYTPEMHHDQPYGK
UniProt P17174: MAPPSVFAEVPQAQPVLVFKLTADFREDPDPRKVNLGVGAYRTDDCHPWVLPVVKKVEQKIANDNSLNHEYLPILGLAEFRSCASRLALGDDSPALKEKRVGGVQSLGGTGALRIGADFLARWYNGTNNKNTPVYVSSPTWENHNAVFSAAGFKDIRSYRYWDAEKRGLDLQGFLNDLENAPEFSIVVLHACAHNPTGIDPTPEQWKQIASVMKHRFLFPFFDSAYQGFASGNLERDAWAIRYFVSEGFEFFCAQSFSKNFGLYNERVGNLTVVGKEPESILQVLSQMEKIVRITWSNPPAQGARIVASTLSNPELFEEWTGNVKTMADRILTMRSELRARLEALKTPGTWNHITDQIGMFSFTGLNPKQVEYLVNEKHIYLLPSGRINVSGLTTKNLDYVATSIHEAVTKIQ
UniProt P17900: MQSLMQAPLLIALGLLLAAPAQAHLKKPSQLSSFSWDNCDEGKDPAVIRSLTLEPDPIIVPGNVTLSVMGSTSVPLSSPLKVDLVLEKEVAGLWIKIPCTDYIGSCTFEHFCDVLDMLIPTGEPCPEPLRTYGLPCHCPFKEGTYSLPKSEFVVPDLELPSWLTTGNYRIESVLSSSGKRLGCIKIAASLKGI
UniProt O60234, whole entry, looked up: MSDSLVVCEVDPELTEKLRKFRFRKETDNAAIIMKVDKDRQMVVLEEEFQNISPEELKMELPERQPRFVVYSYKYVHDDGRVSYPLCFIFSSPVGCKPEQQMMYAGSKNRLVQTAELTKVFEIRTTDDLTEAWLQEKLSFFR
UniProt P50148, whole entry, looked up: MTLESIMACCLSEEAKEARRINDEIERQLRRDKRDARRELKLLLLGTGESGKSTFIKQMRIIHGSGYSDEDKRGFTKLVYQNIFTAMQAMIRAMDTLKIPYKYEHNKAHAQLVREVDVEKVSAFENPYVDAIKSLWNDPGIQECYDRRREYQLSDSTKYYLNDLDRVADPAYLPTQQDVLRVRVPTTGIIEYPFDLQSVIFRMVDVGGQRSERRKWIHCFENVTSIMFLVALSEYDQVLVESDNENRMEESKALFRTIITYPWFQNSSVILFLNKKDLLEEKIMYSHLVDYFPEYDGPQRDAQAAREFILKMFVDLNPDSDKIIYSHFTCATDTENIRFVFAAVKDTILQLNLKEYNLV

This is one part of the list.

Compound in this assay: Cc1ncc(-c2ccnc(Nc3ccc(S(C)(=O)=O)cc3)n2)n1C(C)C
Briefly: log2 fold change, soluble protein after heating vs DMSO (PISA); higher = thermal stabilisation; K562 cells, 10 uM, 30 min; active = over 0.2 and 3.5 SD of the protein, either way, in both replicates (recomputed). The method, boiled down: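 K562 cells (2×10^6 cells/mL) were treated with 10 μM compound for 30 min, and aliquots were heated for 3 min over 48°C-58°C. Pooled aliquots were extracted in PBS with 0.5% NP-40 at 4°C, and the supernatant after 21,000xg for 90 min was measured by TMTpro 16plex LC-MS/MS with channel sums equalised. Reported thermal stability, relative to control samples and from duplicates, is a log2 fold change.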
GOLT1B (UniProt Q9Y3E0): the log2 fold change is inactive: -0.013.

GRWD1 (UniProt Q9BQ67): the log2 fold change was inactive: -0.034.

On to GRHPR (UniProt Q9UBQ7), for which the log2 fold change was inactive: -0.021.

As to GLG1 isoform 2 (UniProt Q92896), the log2 fold change is inactive: 0.009.

On to GRSF1 (UniProt Q12849), for which the log2 fold change was inactive: 0.15.

Take GPHN isoform 2 (UniProt Q9NQX3): the log2 fold change was inactive: -0.004.

On to GLOD4 isoform 2 (UniProt Q9HC38), for which the log2 fold change is inactive: 0.003.

For the target GLB1L2 (UniProt Q8IW92), the log2 fold change was inactive: -0.052.

As to GIPC1 (UniProt O14908), the log2 fold change was inactive: 0.038.

As to GOLGA2 (UniProt Q08379), the log2 fold change was inactive: 0.041.

GINS3 (UniProt Q9BRX5): the log2 fold change was inactive: -0.028.

For the target GOLGA5 (UniProt Q8TBA6), the log2 fold change is inactive: -0.005.

Turning to GOT1 (UniProt P17174), the log2 fold change was inactive: -0.009.

Turning to GM2A (UniProt P17900), the log2 fold change is inactive: 0.037.

In the case of GMFG (UniProt O60234), the log2 fold change is inactive: -0.013.

For GNAQ (UniProt P50148), the log2 fold change was inactive: 0.

As for GPATCH11 (UniProt Q8N954), the log2 fold change is inactive: 0.058.
